In the assay the target is mimobody pCC2. Put plainly: affinity chromatography.

These are yes or no findings as the source states them, for the method shown. Some results given as binding are weak or reduced against the parent protein; the word gives no strength.

The record followed here is patent US20080274131A1.

Consider protein G (from UniProt P06654 228-352), for which the binding result was “binds”.
